# Laboratory results taken from patent US10941137B2, “Difluoromethyl-phenyl triazoles” (Boehringer Ingelheim International GmbH, priority 2018, dated 2021).
# Chains of the proteins cited; added tags and fusions are not shown. Residues count along the entry.
# UniProt P18507, whole entry: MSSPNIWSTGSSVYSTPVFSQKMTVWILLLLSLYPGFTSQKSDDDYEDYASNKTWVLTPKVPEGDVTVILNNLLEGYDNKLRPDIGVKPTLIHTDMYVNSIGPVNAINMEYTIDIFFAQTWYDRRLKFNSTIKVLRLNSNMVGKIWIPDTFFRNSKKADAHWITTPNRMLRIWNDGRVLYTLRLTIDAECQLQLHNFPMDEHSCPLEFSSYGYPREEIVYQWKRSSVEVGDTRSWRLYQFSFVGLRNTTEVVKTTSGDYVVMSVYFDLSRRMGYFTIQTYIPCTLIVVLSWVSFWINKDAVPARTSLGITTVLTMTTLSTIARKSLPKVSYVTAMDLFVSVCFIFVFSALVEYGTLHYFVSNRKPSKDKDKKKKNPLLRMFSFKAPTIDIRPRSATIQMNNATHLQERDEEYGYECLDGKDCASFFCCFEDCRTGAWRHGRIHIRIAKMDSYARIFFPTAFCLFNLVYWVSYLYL
# UniProt P18507, 40-376 limits assumed: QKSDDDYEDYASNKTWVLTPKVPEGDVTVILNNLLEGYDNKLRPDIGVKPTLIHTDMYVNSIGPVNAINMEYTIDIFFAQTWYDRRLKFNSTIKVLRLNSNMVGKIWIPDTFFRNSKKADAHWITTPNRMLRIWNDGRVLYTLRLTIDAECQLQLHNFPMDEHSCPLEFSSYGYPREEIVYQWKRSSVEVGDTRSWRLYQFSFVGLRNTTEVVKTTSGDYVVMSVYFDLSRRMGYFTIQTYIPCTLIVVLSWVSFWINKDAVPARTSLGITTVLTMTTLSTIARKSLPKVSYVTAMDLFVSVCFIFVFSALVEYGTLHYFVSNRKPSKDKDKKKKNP
# UniProt P31644, whole entry: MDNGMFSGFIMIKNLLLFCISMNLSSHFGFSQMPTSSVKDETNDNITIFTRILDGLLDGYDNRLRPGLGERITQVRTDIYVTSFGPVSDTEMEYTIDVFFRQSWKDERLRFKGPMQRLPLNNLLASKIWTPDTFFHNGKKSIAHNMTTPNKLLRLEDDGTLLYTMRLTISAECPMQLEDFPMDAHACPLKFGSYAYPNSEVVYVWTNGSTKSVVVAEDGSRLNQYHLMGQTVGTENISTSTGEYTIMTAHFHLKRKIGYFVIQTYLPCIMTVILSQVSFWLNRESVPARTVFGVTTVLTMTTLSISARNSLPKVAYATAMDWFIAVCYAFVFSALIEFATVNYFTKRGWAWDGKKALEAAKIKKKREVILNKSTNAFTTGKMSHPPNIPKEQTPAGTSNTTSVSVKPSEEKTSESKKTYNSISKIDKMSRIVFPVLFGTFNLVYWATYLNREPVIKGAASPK
# UniProt P31644, 32-462 limits assumed: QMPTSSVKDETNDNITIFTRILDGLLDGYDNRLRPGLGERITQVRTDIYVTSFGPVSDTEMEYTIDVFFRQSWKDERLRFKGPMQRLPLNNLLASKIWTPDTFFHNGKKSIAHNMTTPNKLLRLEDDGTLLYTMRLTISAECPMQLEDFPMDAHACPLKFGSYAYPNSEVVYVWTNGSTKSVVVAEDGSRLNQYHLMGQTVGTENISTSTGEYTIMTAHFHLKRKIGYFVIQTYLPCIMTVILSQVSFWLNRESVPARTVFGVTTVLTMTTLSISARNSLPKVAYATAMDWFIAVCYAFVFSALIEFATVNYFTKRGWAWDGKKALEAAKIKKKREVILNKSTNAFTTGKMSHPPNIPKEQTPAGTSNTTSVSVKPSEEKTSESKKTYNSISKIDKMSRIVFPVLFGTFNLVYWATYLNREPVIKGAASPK
# The structures given here were assigned with low confidence; some may be wrong.
# Tests used:
# [1] = molecular target: human GABAA α5β3γ2s receptor (Homo sapiens, UniProt P18507+P31644); assay: Assay A: in vitro inhibition of 3H-flumazenil binding, HEK cells expressing human GABAA α5β3γ2s receptor; settings: read-out: Assay A: GABAA α5β3γ2s Ki; 3H-flumazenil 1 nM, HEK-293 membranes, 40 min at 2° C.; Ki from IC50 by Cheng and Prusoff
# [2] = Metabolic stability in human liver microsomes (Human MST); type: in vitro ADME; settings: human liver microsomes 1 mg/mL, 1 μM compound, NADPH 1 mM, 37° C.
# Protocol: Assessment of Metabolic Stability in Human Liver Microsomes (Human MST) The metabolic stability of the compounds according to the invention may be investigated as follows: The metabolic degradation of the test compound is assayed at 37° C. with pooled human liver microsomes. The final incubation volume of 100 μL per time point contains TRIS buffer pH 7.6 at room temperature (0.1 M), MgCl2 (5 mM), microsomal protein (1 mg/mL) and the test compound at a final concentration of 1 μM. Following a short pre-incubation period at 37° C., the reactions are initiated by addition of beta-nicotinamide adenine dinucleotide phosphate, reduced form (NADPH, 1 mM), and terminated by transferring an aliquot into solvent after different time points. After centrifugation (10000 g, 5 min), an aliquot of the supernatant is assayed by LCMS/MS for the amount of parent compound. The half-life (t½) is determined by the slope of the semi-logarithmic plot of the concentration-time profile.
# α5β2γ2 GABAA receptor = α5β2γ2 GABAA receptor (Homo sapiens, UniProt P18507+P31644); assay: Assay B: modulation of α5β2γ2 GABAA receptor, two-electrode voltage clamp in oocytes; settings: read-out: Assay B: GABAA α5β3γ2 EC50, TEVC, co-application with GABA 0.5 μM (EC5-20)
smiles,measurement,setting,value
Cc1nnn(-c2ccc(C(F)F)cc2)c1COc1ccc(-n2ncnc2N)nn1,Ki,[1],0.07 nM
same,Human MST t1/2,[2],>2.17 h
same,EC50,α5β2γ2 GABAA receptor,2.4 nM
